Assay results published in PubChem BioAssay (NCATS).
Only a part is listed here, and it is no random draw. Results filed as inconclusive are left out. Active and inactive are the calls of the source. Calls follow the shape of the dose curve; as a rule, active = well fitted curve in the direction sought with a large enough effect; inconclusive = small, poorly fitted or top-dose-only effect, or another doubt; inactive = no such curve, though single readings can be large; an effect the other way counts as inactive or inconclusive.

Tests used:
[1] = BET inhibitor-based combinations targeting novel dependencies in MECOM-rearranged (r) AML: SET-2 cell line (AID 2202231); details: SET-2 AML cells viability, CellTiter-Glo luminescence, 48 h; also: nearly all actives have a fitted effect of over 35% in size
Procedure, shortened: (§1)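 Viability of cells (500 per well) is scored by luminescent CellTiter-Glo at 48 hr post-dosing. Eleven-point titrations are normalized to DMSO and empty controls and reduced to AUC values.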

[2] = BET inhibitor-based combinations targeting novel dependencies in MECOM-rearranged (r) AML: OCI-AML3 cell line (AID 2202232); details: CellTiter-Glo luminescence, 48 h; Potency: OCI-AML3 viability; series mostly up to 46 µM; also: nearly all actives have a fitted effect of over 35% in size
Procedure, shortened: as §1

[3] = BET inhibitor-based combinations targeting novel dependencies in MECOM-rearranged (r) AML: HNT-34 cell line (AID 2202234); details: HNT-34 AML viability, CellTiter-Glo luminescence, 48 h; also: nearly all actives have a fitted effect of over 35% in size
Excerpt: (§2) Ecotropic viral insertion site 1 (EVI1) is located on chromosome 3q26.2 as part of the MECOM (MDS and EVI1 complex) locus. Under normal hematopoiesis, EVI1 is a regulator of hematopoietic stem cell maintenance and self-renewal and EVI1 levels decrease as the cells differentiate. In approximately 5-10% of de novo acute myeloid leukemia (AML) EVI1 is aberrantly expressed, including Chromosomal inv(3)(q21;q26.2) or t(3;3)(q21;q26.2) alterations (MECOM-r) that account for about 50% of AML with EVI1 overexpression 31. AMLs with high levels of EVI1 have a poor prognosis and an overall survival time averaging between 10-14 months. EVI1 overexpression confers resistance in leukemia cells, highlighting the need to develop new targeted therapies for EVI1 overexpressing AMLs. […]
(§3) A collection of 2480 mechanistically annotated dugs (MIPE v5.0) was used to screen four 3q26.2 rearranged AML cell lines and three non-3q26.2 rearranged AML cell lines. […] Cell viability was determined by luminescence based, Cell Titer Glo assay (Promega). […] Luminescence readings were taken using a Viewlux (PerkinElmer) with a 2 s exposure time per plate. […] Quantitative drug activity data from dose-response curves was determined utilizing area Under the Curve (AUC) and Z-transformed AUC (Z-AUC, a mean-centering transformation applied to each individual cell-line screened).

[4] = BET inhibitor-based combinations targeting novel dependencies in MECOM-rearranged (r) AML: UCSD-AML1 cell line (AID 2202235); details: UCSD-AML1 AML cells viability, CellTiter-Glo, 48 h; also: nearly all actives have a fitted effect of over 40% in size
Procedure, shortened: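 Using pin-tool transfer, drugs were added in 11 doses to cells (500/well), incubated 48 hr, and assessed with CellTiter-Glo. Z-AUC is a mean-centring transformation applied separately to each screened line.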

[5] = BET inhibitor-based combinations targeting novel dependencies in MECOM-rearranged (r) AML: AML-191 cell line (AID 2202236; also: nearly all actives have a fitted effect of over 35% in size); details: AML-191 viability, CellTiter-Glo luminescence, 48 h
Procedure, shortened: as §1

[6] = BET inhibitor-based combinations targeting novel dependencies in MECOM-rearranged (r) AML: AML-194 cell line (AID 2202237; also: nearly all actives have a fitted effect of over 40% in size); details: AML-194 (MECOM-r AML) viability, CellTiter-Glo, 48 h
Procedure, shortened: as §1

[7] = BET inhibitor-based combinations targeting novel dependencies in MECOM-rearranged (r) AML: MV-4-11 cell line (AID 2202233); details: MV-4-11 AML viability, CellTiter-Glo luminescence, 48 h; also: nearly all actives have a fitted effect of over 45% in size
Excerpt: as §2, §3
Potency is read from the fitted curve at half-maximal effect.

Compound | Potency [1] | Potency [2] | Potency [3] | Potency [4] | Potency [5] | Potency [6] | Potency [7]
CCN1CCN(Cc2ccc(NC(=O)Nc3ccc(Oc4cc(NC)ncn4)cc3)cc2C(F)(F)F)CC1 | active: 8.33 µM | active: 7.42 µM | active: 0.59 µM | active: 2.95 µM | active: 4.68 µM | active: 4.17 µM | –
CCS(=O)(=O)N1CC(CC#N)(n2cc(-c3ncnc4[nH]ccc34)cn2)C1 | – | inactive | – | active: 1.32 µM | – | – | active: 20.9 µM
O=C(CCCCCCC(=O)Nc1ccccc1)NO | active: 2.35 µM | – | – | active: 2.35 µM | – | active: 2.35 µM | –
